The values that follow come from PubChem BioAssay AID2685 (National Center for Advancing Translational Sciences (NCATS), 2010).

Values joined by “and” are separate entries in the source; they are usually repeats but may differ in a detail not shown here. Equal entries are not always repeated. Some of the results follow. These are further read-outs of the screen, such as a control signal, another cell line or another target. No call is given for them. Compounds called inactive in the main read-out are mostly missing here. Words in brackets tell the shape of the fitted curve; partial curves, single points and poor fits give uncertain potencies.

This test is described as follows: qHTS Assay for Lipid Storage Modulators in Drosophila S3 Cells.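 As to cell number change: cells counted by Cell Tracker Red CMTPX staining in the red channel.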 The conditions noted are these: BODIPY lipid droplet fluorescence, 18-24 h; for cell number change: measured here: cell count max response, cells fed with added oleic acid. The text has this: NIH Molecular Libraries Probe Production Centers Network [MLPCN] NIH Chemical Genomics Center [NCGC] MLPCN Grant: 1 R03 MH085686-01 Assay Submitter (PI): Beller, Mathias; Max-Planck-Institut fur Biophysikalische Chemie NCGC Assay Overview: Storing lipids as a reservoir for energy or the anabolism of elementary metabolites is a common feature of probably all cells and is conserved from bacteria to humans. The universal cellular lipid storage organelle is the so-called lipid storage droplet (LD). Although ubiquitous, LDs share a simple structure composed of a hydrophobic core that harbors the storage lipids, which is shielded by a droplet-specific phospholipid monolayer to which proteins are attached. The current model of LD biogenesis involves an incorporation of the lipid core into the membrane leaflets of the endoplasmic reticulum (ER) followed by a subsequent budding-like maturation of a LD, which ultimately pinches off. Once released, LD volume can increase by localized lipogenesis or fusion of existing droplet. Storage lipids are re-mobilized enzymatically by lipase activity. Lipase regulation in the adipocyte is heavily studied and involves multiple components including catecholamine signaling, the LD-associated proteins Perilipin and comparative gene identification (CGI-58) and at least two lipases named hormone sensitive lipase (HSL) and adipocyte triglyceride lipase (ATGL). LD regulation outside of the adipocyte is poorly understood and only few components are known. However, there is an urgent need to learn more about ectopic fat depots as mislocalized storage of lipids, for example in the liver or muscle, is an eminent health problem associated with insulin resistance or the metabolic syndrome. We developed a laser-scanning cytometer assay to enable 1,536-well screening and combined the results of the small molecules screen with an RNAi database based on lipid storage.
Triacsin C (Sigma-Aldrich T-4540), an inhibitor of long-chain fatty acyl CoA synthetase that blocks synthesis of triglycerides, was used as a positive control for lipid under-storage. A total of 23 nL of compound solution of different concentrations were transferred to the assay plates using a Kalypsys pin tool equipped with a 1,536-pin array containing 10-nL slotted pins (FP1S10, 0.457-mm diameter, 50.8 mm long; V&P Scientific). One microliter of oleic acid (400 uM) was added, and the plate was lidded with stainless steel rubber gasket lined lids containing pinholes. […] Fluorescence was detected by excitation of the fluorophores with a 488-nm laser on an Acumen Explorer (TTP Lab Tech). The total intensity in channel 2 (500-530 nm) reflected lipid droplet accumulation. Cells were detected using channel 3 (575-640 nm) with 5-um width and 100-um depth filters. The ratio of the number of objects in PMT channel 2 over the number of objects in PMT channel 3 was also calculated. Percent activity was computed relative to an internal control (100% inhibited lipid droplet deposition due to the presence of 20 uM Triacsin C), which was added to 32 wells/plate.

The mark [1] stands for this setting: measured here: lipid fluorescence (Fed channel) AC50, cells fed with added oleic acid.
[2] abbreviates: measured here: cell number channel AC50, cells fed with added oleic acid.

The term AC50 denotes the concentration giving half of the maximal activity seen. Read a high AC50 as weaker potency. Take `CC(NC(=O)C1CCCC1)c1ccc2c(c1)OCCO2` (configuration not stated): the cell number change was 17.1%. Further, the AC50 under setting [1] is 11.6 µM [rising, single point].
In the case of `CCOC(=O)C1=NN(C(=O)c2ccc(OC)cc2)C(O)(c2ccc(Cl)cc2)C1` (configuration not stated), the cell number change was determined as 8.53%. Moreover, the AC50 under setting [2] was 3.26 µM [rising, single point]. Moreover, the AC50 under setting [1] is 8.2 µM [rising, partial curve].
On to `C=CCN=C1N[C@@H](c2ccccc2)C(C(=O)OC)=C(C)N1CCOC`, for which the cell number change is -10.5% and 10.4%. Moreover, the half-maximal activity concentration (AC50) under setting [1] was 7.31 µM [rising, full curve, poor fit] and 29.1 µM [rising, single point].
As for `CCCCCC(=O)NC(=S)Nc1ccccc1C(=O)OC`, the cell number change amounted to 10.3%. The AC50 under setting [2] was 3.26 µM [rising, single point]. The AC50 under setting [1] was 0.82 µM [falling, full curve].
On to `C=CCN(C(=O)C1CC(=O)N(C2CCCC2)C1)c1nc(-c2ccc(S(C)(=O)=O)cc2)cs1` (configuration not stated), for which the cell number change was -18.4%. Moreover, under setting [1], the AC50 is 7.31 µM [falling, partial curve].
Take `CCOC(=O)N1CCC(NC(=O)c2cccn3c(=O)c4cc(Br)ccc4nc23)CC1`: the cell number change was determined as 60.5%.
With `COc1cc(S(=O)(=O)Nc2ccccc2C(=O)N2CCCC2)ccc1NC(C)=O`, the cell number change was determined as 42%. The AC50 under setting [2] was 8.2 µM [rising, partial curve].
`O=C1[C@H](CC[C@H](O)c2ccc(F)cc2)[C@@H](c2ccc(O)cc2)N1c1ccc(F)cc1`: the cell number change was -28%. Moreover, the AC50 under setting [1] was 29.1 µM [falling, single point].
As to `O=C(N/N=C/c1ccc(-c2ccc([N+](=O)[O-])cc2)o1)c1cccnc1`, the cell number change was -12.7%. Also, the AC50 under setting [1] is 29.1 µM [falling, single point].
For the compound `CCOC(=O)C1CCCN(C(=O)c2sc3nc(-c4ccc(F)cc4)cn3c2C)C1` (configuration not stated), the cell number change is -32%. Besides, the AC50 under setting [2] was 16.4 µM [falling, partial curve]. Further, the AC50 under setting [1] is 20.6 µM [falling, partial curve].
Take `Cc1cc(C)nc(-n2ncc3c2CCCC3=O)n1`: the cell number change was -7.64%. Besides, the AC50 under setting [2] was 0.517 µM [falling, single point].
Consider `CCc1ccccc1NC(=O)CN(C)Cc1nc(N)nc(Nc2ccccc2C)n1`, for which the cell number change was -10.2%. Besides, under setting [1], the AC50 is 16.4 µM [rising, single point].
`Cc1cc(C)cc(N(C(C)C(=O)Nc2c(C)n(C)n(-c3ccccc3)c2=O)S(C)(=O)=O)c1` (configuration not stated): the cell number change came to 7.62%.
Regarding `CCCCN(C)Cc1c(C)[nH]c2c(Cl)cccc2c1=O`, the cell number change was determined as 122%. For the same compound, under setting [2], the AC50 is 20.6 µM [rising, single point]. For the same compound, the AC50 under setting [1] was 20.6 µM [rising, single point].
`O=C(N=C1SC2CS(=O)(=O)CC2N1c1ccccc1Cl)C1CCCO1` (configuration not stated): the cell number change was -11.5%. Under setting [1], the AC50 was 29.1 µM [rising, single point].
Take `CCOC(=O)c1c(-c2ccccc2)oc2ccc(OCC(N)=O)cc12`: the cell number change turned out to be 11.9%. Under setting [1], the AC50 was 29.1 µM [falling, single point].
As to `COc1ccc(CNC(=O)CN(C(=O)c2csnn2)c2cccc3c2CCCC3)cc1`, the cell number change came out at 15.3%. The AC50 under setting [2] was 6.51 µM [rising, single point].
Turning to `COC(=O)c1nn(-c2ccc(Oc3ccccc3)cc2)c(=O)cc1O`, the cell number change is -3.4%.
With `CCCCCCS(=O)Cc1ccccc1` (configuration not stated), the cell number change is -5.96%. Besides, under setting [2], the AC50 was 0.058 µM [falling, full curve].
For `O=C(NCCCCNC(=O)c1ccc(Br)cc1)c1ccc(Br)cc1`, the cell number change stood at 4.72%. Further, under setting [1], the AC50 is 32.6 µM [rising, single point].
Consider `O=C(N1CCc2[nH]c3ccccc3c2C1)C(F)(F)F`, for which the cell number change was -4.17%. For the same compound, under setting [1], the AC50 is 0.58 µM [falling, single point].
Regarding `c1ccc(C2=Nn3c(nnc3-c3n[nH]c4c3CCC4)SC2)cc1`, under setting [1], the AC50 is 6.51 µM [falling, single point].
Take `CCOC(=O)c1[nH]c2ccccc2c1NC(=O)NC1CCCCC1`: the cell number change was found to be 23%. Moreover, the half-maximal activity concentration (AC50) under setting [1] is 2.31 µM [rising, partial curve].
With `CC(C)(C)NC(NC(=O)Cc1ccccc1)C(Cl)(Cl)Cl` (configuration not stated), the cell number change was 0.197%. In addition, the AC50 under setting [1] is 5.17 µM [falling, full curve, poor fit].
Consider `CC1(C)OC(=O)C(=CSc2ccc(C(C)(C)C)cc2)C(=O)O1`, for which the cell number change came out at 49.6%. Moreover, under setting [2], the AC50 is 5.17 µM [rising, full curve, poor fit].
For the compound `Cc1c(C(=O)N/N=C/c2cccnc2)sc(N)c1C#N`, the AC50 under setting [2] is 6.51 µM [rising, single point].
For the compound `CCCC(=O)Nc1c2c(nn1-c1ccc(C)cc1)CS(=O)(=O)C2`, the cell number change was -3.66%. The AC50 under setting [1] was 0.82 µM [falling, full curve, poor fit].
For the compound `C/C(=C\COc1ccc2ccc(=O)oc2c1)CC[C@@H](O)C(C)(C)O`, the cell number change amounted to 10.3%. For the same compound, the AC50 under setting [1] is 18.4 µM [rising, single point].
Consider `CCNS(=O)(=O)c1ccc(CCC(=O)N2CCN(c3cccc(Cl)c3)CC2)cc1`, for which the cell number change is 20.9%. Moreover, under setting [1], the AC50 is 1.03 µM [rising, full curve].
